Measurements as given in article PMC7726220.
No constants are given. Whether binding was seen depends on the method and setting. In cells and extracts the contact can be indirect. Some results given as binding are weak or reduced against the parent protein; the word gives no strength. Where a sequence is shown, tags or fusion partners need not be part of it.

T1: Flag-tagged full-length TMEM132A (FL T132A-Flag) (mouse) (UniProt Q922P8)
T1 sequence: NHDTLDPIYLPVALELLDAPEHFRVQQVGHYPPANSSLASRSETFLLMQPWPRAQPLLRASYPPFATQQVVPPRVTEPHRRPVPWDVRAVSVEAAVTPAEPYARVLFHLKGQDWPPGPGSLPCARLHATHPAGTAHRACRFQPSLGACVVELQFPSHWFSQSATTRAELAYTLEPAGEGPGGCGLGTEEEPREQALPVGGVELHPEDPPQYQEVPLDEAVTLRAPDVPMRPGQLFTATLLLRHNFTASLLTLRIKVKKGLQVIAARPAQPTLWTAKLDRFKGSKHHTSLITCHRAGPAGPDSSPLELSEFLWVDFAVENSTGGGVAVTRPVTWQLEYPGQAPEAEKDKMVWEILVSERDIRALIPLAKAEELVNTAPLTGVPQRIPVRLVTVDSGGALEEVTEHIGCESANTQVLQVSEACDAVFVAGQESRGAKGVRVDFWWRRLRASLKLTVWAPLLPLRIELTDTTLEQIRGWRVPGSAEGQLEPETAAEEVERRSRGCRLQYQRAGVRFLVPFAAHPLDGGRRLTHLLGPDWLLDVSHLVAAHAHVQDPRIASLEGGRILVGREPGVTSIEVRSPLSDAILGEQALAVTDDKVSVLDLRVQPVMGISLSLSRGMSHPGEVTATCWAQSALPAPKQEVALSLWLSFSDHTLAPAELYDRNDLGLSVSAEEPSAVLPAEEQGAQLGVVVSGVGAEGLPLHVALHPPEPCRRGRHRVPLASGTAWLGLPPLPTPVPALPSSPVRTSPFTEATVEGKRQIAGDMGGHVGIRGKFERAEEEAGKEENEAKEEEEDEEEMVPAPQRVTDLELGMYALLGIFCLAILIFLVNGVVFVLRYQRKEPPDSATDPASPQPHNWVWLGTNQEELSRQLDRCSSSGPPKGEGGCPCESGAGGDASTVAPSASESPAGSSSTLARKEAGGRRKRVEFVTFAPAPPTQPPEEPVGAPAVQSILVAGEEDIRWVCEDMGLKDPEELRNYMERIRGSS

T2: FL Myc-tagged WLS (WLS-Myc) (mouse) (UniProt Q6DID7)
T2 sequence: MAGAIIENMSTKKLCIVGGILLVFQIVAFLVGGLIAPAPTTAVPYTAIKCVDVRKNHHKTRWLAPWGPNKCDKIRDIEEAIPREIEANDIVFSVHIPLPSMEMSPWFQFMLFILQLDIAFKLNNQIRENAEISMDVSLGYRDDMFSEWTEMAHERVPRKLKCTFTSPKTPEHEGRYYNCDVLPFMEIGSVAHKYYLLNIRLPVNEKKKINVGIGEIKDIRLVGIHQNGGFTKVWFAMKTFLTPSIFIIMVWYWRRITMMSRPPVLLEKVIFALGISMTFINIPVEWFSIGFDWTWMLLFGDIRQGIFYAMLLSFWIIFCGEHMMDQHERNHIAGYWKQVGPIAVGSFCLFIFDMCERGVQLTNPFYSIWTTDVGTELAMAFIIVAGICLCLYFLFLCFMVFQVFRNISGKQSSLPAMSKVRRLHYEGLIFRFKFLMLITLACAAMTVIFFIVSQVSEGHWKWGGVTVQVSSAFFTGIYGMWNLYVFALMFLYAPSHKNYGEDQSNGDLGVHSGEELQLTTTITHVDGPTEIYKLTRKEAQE

T3: HA-tagged full-length WLS (FL WLS-HA) (mouse) (UniProt Q6DID7)
T3 sequence: T2 sequence

B1: WLS-HA truncation aa 1-264 (domain or fragment, UniProt Q6DID7-1 1-264)
chain: MAGAIIENMSTKKLCIVGGILLVFQIVAFLVGGLIAPAPTTAVPYTAIKCVDVRKNHHKTRWLAPWGPNKCDKIRDIEEAIPREIEANDIVFSVHIPLPSMEMSPWFQFMLFILQLDIAFKLNNQIRENAEISMDVSLGYRDDMFSEWTEMAHERVPRKLKCTFTSPKTPEHEGRYYNCDVLPFMEIGSVAHKYYLLNIRLPVNEKKKINVGIGEIKDIRLVGIHQNGGFTKVWFAMKTFLTPSIFIIMVWYWRRITMMSRPPV
B2: WLS-HA truncation aa 332-428 (domain or fragment, UniProt Q6DID7-1 332-428)
chain: IAGYWKQVGPIAVGSFCLFIFDMCERGVQLTNPFYSIWTTDVGTELAMAFIIVAGICLCLYFLFLCFMVFQVFRNISGKQSSLPAMSKVRRLHYEGL
B3: WLS-HA truncation aa 429-541 (domain or fragment, UniProt Q6DID7-1 429-541)
chain: IFRFKFLMLITLACAAMTVIFFIVSQVSEGHWKWGGVTVQVSSAFFTGIYGMWNLYVFALMFLYAPSHKNYGEDQSNGDLGVHSGEELQLTTTITHVDGPTEIYKLTRKEAQE
B4: HA-tagged WNT5A (FL WNT5A-HA) (ligand, UniProt P22725-1 62-380)
chain: IIGAQPLCSQLAGLSQGQKKLCHLYQDHMQYIGEGAKTGIKECQYQFRHRRWNCSTVDNTSVFGRVMQIGSRETAFTYAVSAAGVVNAMSRACREGELSTCGCSRAARPKDLPRDWLWGGCGDNIDYGYRFAKEFVDARERERIHAKGSYESARILMNLHNNEAGRRTVYNLADVACKCHGVSGSCSLKTCWLQLADFRKVGDALKEKYDSAAAMRLNSRGKLVQVNSRFNSPTTQDLVYIDPSPDYCVRNESTGSLGTQGRLCNKTSEGMDGCELMCCGRGYDQFKTVQTERCHCKFHWCCYVKCKKCTEIVDQFVCK
B5: Flag-tagged full-length TMEM132A (FL T132A-Flag) (protein, UniProt Q922P8 33-1018)
chain: T1 sequence
B6: endogenous WLS of HEK 293T cells (protein, UniProt Q5T9L3 1-541)
chain: MAGAIIENMSTKKLCIVGGILLVFQIIAFLVGGLIAPGPTTAVSYMSVKCVDARKNHHKTKWFVPWGPNHCDKIRDIEEAIPREIEANDIVFSVHIPLPHMEMSPWFQFMLFILQLDIAFKLNNQIRENAEVSMDVSLAYRDDAFAEWTEMAHERVPRKLKCTFTSPKTPEHEGRYYECDVLPFMEIGSVAHKFYLLNIRLPVNEKKKINVGIGEIKDIRLVGIHQNGGFTKVWFAMKTFLTPSIFIIMVWYWRRITMMSRPPVLLEKVIFALGISMTFINIPVEWFSIGFDWTWMLLFGDIRQGIFYAMLLSFWIIFCGEHMMDQHERNHIAGYWKQVGPIAVGSFCLFIFDMCERGVQLTNPFYSIWTTDIGTELAMAFIIVAGICLCLYFLFLCFMVFQVFRNISGKQSSLPAMSKVRRLHYEGLIFRFKFLMLITLACAAMTVIFFIVSQVTEGHWKWGGVTVQVNSAFFTGIYGMWNLYVFALMFLYAPSHKNYGEDQSNGDLGVHSGEELQLTTTITHVDGPTEIYKLTRKEAQE
B7: endogenous TMEM132A of HEK 293T cells (protein, UniProt Q24JP5 36-1023)
chain: CGQAPLDPVYLPAALELLDAPEHFRVQQVGHYPPANSSLSSRSETFLLLQPWPRAQPLLRASYPPFATQQVVPPRVTEPHQRPVPWDVRAVSVEAAVTPAEPYARVLFHLKGQDWPPGSGSLPCARLHATHPAGTAHQACRFQPSLGACVVELELPSHWFSQASTTRAELAYTLEPAAEGPGGCGSGEENDPGEQALPVGGVELRPADPPQYQEVPLDEAVTLRVPDMPVRPGQLFSATLLLRHNFTASLLTLRIKVKKGLHVTAARPAQPTLWTAKLDRFKGSRHHTTLITCHRAGLTEPDSSPLELSEFLWVDFVVENSTGGGVAVTRPVTWQLEYPGQAPEAEKDKMVWEILVSERDIRALIPLAKAEELVNTAPLTGVPQHVPVRLVTVDGGGALVEVTEHVGCESANTQVLQVSEACDAVFVAGKESRGARGVRVDFWWRRLRASLRLTVWAPLLPLRIELTDTTLEQVRGWRVPGPAEGPAEPAAEASDEAERRARGCHLQYQRAGVRFLAPFAAHPLDGGRRLTHLLGPDWLLDVSHLVAPHARVLDSRVASLEGGRVVVGREPGVTSIEVRSPLSDSILGEQALAVTDDKVSVLELRVQPVMGISLTLSRGTAHPGEVTATCWAQSALPAPKQEVALSLWLSFSDHTVAPAELYDRRDLGLSVSAEEPGAILPAEEQGAQLGVVVSGAGAEGLPLHVALHPPEPCRRGRHRVPLASGTAWLGLPPASTPAPALPSSPAWSPPATEATMGGKRQVAGSVGGNTGVRGKFERAEEEARKEETEAREEEEEEEEEMVPAPQHVTELELGMYALLGVFCVAIFIFLVNGVVFVLRYQRKEPPDSATDPTSPQPHNWVWLGTDQEELSRQLDRQSPGPPKGEGSCPCESGGGGEAPTLAPGPPGGTTSSSSTLARKEAGGRRKRVEFVTFAPAPPAQSPEEPVGAPAVQSILVAGEEDIRWVCEDMGLKDPEELRNYMERIRGSS

Columns and labels:
Assay in all cases: co-IP; HEK 293T cells transiently transfected with tagged constructs (or endogenous partner); lysis in 50 mM Tris-HCl pH 8.0, 150 mM NaCl, 10% glycerol, 1 mM EDTA, 1% DDM or 0.5% NP-40; anti-Flag M2, anti-c-Myc or anti-HA magnetic beads; Western blot; in Figure 6D with or without overexpressed TMEM132A
[1] = molecular target: T1, Flag-tagged full-length TMEM132A (FL T132A-Flag) (mouse)
[2] = molecular target: T2, FL Myc-tagged WLS (WLS-Myc) (mouse)
[3] = molecular target: T3, HA-tagged full-length WLS (FL WLS-HA) (mouse)

| Binder | binding [1] | binding [2] | binding [3] |
| --- | --- | --- | --- |
| B1 | binds | – | – |
| B2 | binds weakly | – | – |
| B3 | binds weakly | – | – |
| B4 | binds | binds | – |
| B5 | – | binds | binds |
| B6 | binds | – | – |
| B7 | – | – | binds |
